Taken from: PubChem BioAssay AID1159578 (Peter MacCallum Cancer Centre, 2015)
Aim: 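Knock-downs that alter how fast lymphatic endothelial cells migrate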 (primary screen). System: human lymphatic endothelial cells. Knock-down reagent: siRNA pool against human genes, 40 nM. Timing: 48 h after transfection. Measured: 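High-content imaging of dye-stained cells in a scratch assay measures filled wound area and nuclei per well; duplicate means given as ratio to mock and robust z-score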. Scale: migration robust z-score: higher = faster migration into the scratch; migration relative to mock: higher = more scratch area covered than mock; nuclei per well: higher = more cells in the well. Call rule: 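Migration changed when robust z exceeds 2 or falls below -2 and mean nuclei number is at least 3300; otherwise not called changed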. Meaning of the calls: active = migration changed; inactive = no migration change, or too few cells.
The whole screen tested about 18,000 reagents; this is a random part of them. About 1,030 of all reagents (5.7%) count as active. 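Inactive calls also include pools with fewer than 3300 nuclei, whose migration was not assessed.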 Raw values are not corrected between plates. Reagents against one gene are numbered here.

target	pool no.	migration robust z-score	migration class with cell-count check	migration relative to mock	nuclei per well, duplicate mean	call
KGD4 (alpha-ketoglutarate dehydrogenase subunit 4)	1	0.46	migration z between -2 and 2; enough cells	1	6626	inactive
STX12 (syntaxin 12)	1	-0.89	migration z between -2 and 2; enough cells	0.65	4840	inactive
ITGA8 (integrin subunit alpha 8)	1	-0.8	migration z between -2 and 2; enough cells	0.68	7052	inactive
PABPC1L2A (poly(A) binding protein cytoplasmic 1 like 2A)	1	0.46	migration z between -2 and 2; enough cells	1	5798	inactive
GAS6 (growth arrest specific 6)	1	1.06	migration z between -2 and 2; enough cells	1.16	6016	inactive
TLCD1 (TLC domain containing 1)	1	-0.71	migration z between -2 and 2; enough cells	0.7	6996	inactive
RANBP9 (RAN binding protein 9)	1	1	migration z between -2 and 2; enough cells	1.15	5452	inactive
MIOX (myo-inositol oxygenase)	1	-0.26	migration z between -2 and 2; enough cells	0.76	5250	inactive
PIK3C2B	1	-0.8	migration z between -2 and 2; enough cells	0.65	4950	inactive
CYB5D2 (cytochrome b5 domain containing 2)	1	-1.59	migration z between -2 and 2; enough cells	0.46	3890	inactive
CAMK1G (calcium/calmodulin dependent protein kinase IG)	1	0.15	migration z between -2 and 2; enough cells	0.84	5408	inactive
PLN (phospholamban)	1	0.27	migration z between -2 and 2; enough cells	0.96	3580	inactive
TRAPPC1 (trafficking protein particle complex subunit 1)	1	-0.81	migration z between -2 and 2; enough cells	0.68	6891	inactive
MSRB1 (methionine sulfoxide reductase B1)	1	-0.94	migration z between -2 and 2; enough cells	0.62	3611	inactive
SH2D1B (SH2 domain containing 1B)	1	0.84	migration z between -2 and 2; enough cells	1.1	6470	inactive
ZC3HC1 (zinc finger C3HC-type containing 1)	1	0.66	migration z between -2 and 2; enough cells	1.06	6462	inactive
H2AC8 (H2A clustered histone 8)	1	-0.9	migration z between -2 and 2; enough cells	0.65	5256	inactive
ZNF268 (zinc finger protein 268)	1	0.24	migration z between -2 and 2; enough cells	0.95	5680	inactive
SLC25A53	1	-0.12	migration z between -2 and 2; enough cells	0.86	5304	inactive
ALG2 (ALG2 alpha-1,3/1,6-mannosyltransferase)	1	0.36	migration z between -2 and 2; enough cells	0.88	3712	inactive
ILK (integrin linked kinase)	1	-1.15	migration z between -2 and 2; enough cells	0.58	5476	inactive
ILK (integrin linked kinase)	2	1.06	migration z between -2 and 2; enough cells	1.01	6518	inactive
SLC25A45	1	-0.13	migration z between -2 and 2; enough cells	0.78	6872	inactive
HSPH1 (heat shock protein family H (Hsp110) member 1)	1	-0.53	migration z between -2 and 2; enough cells	0.74	6286	inactive
MRPL15 (mitochondrial ribosomal protein L15)	1	-1.44	migration z between -2 and 2; enough cells	0.52	5890	inactive
CALN1 (calneuron 1)	1	-1.5	migration z between -2 and 2; enough cells	0.5	4334	inactive
TIMM8B (translocase of inner mitochondrial membrane 8 homolog B)	1	1.46	migration z between -2 and 2; enough cells	1.27	5293	inactive
MATK (megakaryocyte-associated tyrosine kinase)	1	-2.62	migration z below -2; enough cells	0.3	3396	active
MTRR	1	-0.78	migration z between -2 and 2; enough cells	0.66	4164	inactive
GGTLC2 (gamma-glutamyltransferase light chain 2)	1	-0.91	migration z between -2 and 2; enough cells	0.63	5400	inactive
SLC7A8	1	0.2	migration z between -2 and 2; enough cells	0.94	7009	inactive
DDR1 (discoidin domain receptor tyrosine kinase 1)	1	-0.05	migration z between -2 and 2; enough cells	0.8	5326	inactive
SELENOH (selenoprotein H)	1	0.36	migration z between -2 and 2; enough cells	0.98	6394	inactive
OR8J1 (olfactory receptor family 8 subfamily J member 1)	1	0.94	migration z between -2 and 2; enough cells	1.14	5124	inactive
NUP133 (nucleoporin 133)	1	1.22	migration z between -2 and 2; enough cells	1.2	5941	inactive
ENDOV (endonuclease V)	1	-1.06	migration z between -2 and 2; enough cells	0.61	5822	inactive
USP17L2 (ubiquitin specific peptidase 17 like family member 2)	1	-0.57	migration z between -2 and 2; enough cells	0.7	5649	inactive
AAR2 (AAR2 splicing factor)	1	0.07	migration z between -2 and 2; enough cells	0.9	4888	inactive
GRK3 (G protein-coupled receptor kinase 3)	1	0.73	migration z between -2 and 2; enough cells	0.94	4896	inactive
SPAG17 (sperm associated antigen 17)	1	0.4	migration z between -2 and 2; enough cells	0.99	6168	inactive
EHD1 (EH domain containing 1)	1	0.41	migration z between -2 and 2; enough cells	0.99	4872	inactive
CAPN1 (calpain 1)	1	0.54	migration z between -2 and 2; enough cells	0.91	5940	inactive
TFAP2C (transcription factor AP-2 gamma)	1	-2.75	migration z below -2; enough cells	0.28	3466	active
SLC6A12	1	-1.74	migration z between -2 and 2; enough cells	0.47	6308	inactive
GPN1 (GPN-loop GTPase 1)	1	-0.98	migration z between -2 and 2; enough cells	0.63	5970	inactive
PARD6G (par-6 family cell polarity regulator gamma)	1	0.35	migration z between -2 and 2; enough cells	0.98	4822	inactive
CFC1 (cryptic, EGF-CFC family member 1)	1	1	migration z between -2 and 2; enough cells	1.14	6104	inactive
RHOBTB1 (Rho related BTB domain containing 1)	1	-0.52	migration z between -2 and 2; enough cells	0.7	4750	inactive
LRCH4	1	0.65	migration z between -2 and 2; enough cells	1.06	5972	inactive
LRRN4CL (LRRN4 C-terminal like)	1	-1.24	migration z between -2 and 2; enough cells	0.57	4925	inactive
KCNAB2	1	-0.55	migration z between -2 and 2; enough cells	0.7	5248	inactive
MYO5C (myosin VC)	1	0.02	migration z between -2 and 2; enough cells	0.81	6436	inactive
CHCHD2 (coiled-coil-helix-coiled-coil-helix domain containing 2)	1	0.6	migration z between -2 and 2; enough cells	1.03	7368	inactive
PSME2 (proteasome activator subunit 2)	1	0.5	migration z between -2 and 2; enough cells	1.02	5633	inactive
SETBP1 (SET binding protein 1)	1	-1.52	migration z between -2 and 2; enough cells	0.49	4774	inactive
SAC3D1 (SAC3 domain containing 1)	1	0.34	migration z between -2 and 2; enough cells	0.98	5512	inactive
PTPDC1 (protein tyrosine phosphatase domain containing 1)	1	-0.52	migration z between -2 and 2; enough cells	0.7	5754	inactive
EGR3 (early growth response 3)	1	-0.44	migration z between -2 and 2; enough cells	0.72	4660	inactive
SLC47A1	1	-0.73	migration z between -2 and 2; enough cells	0.7	5841	inactive
KLF15 (KLF transcription factor 15)	1	0.96	migration z between -2 and 2; enough cells	0.99	6568	inactive
VLDLR (very low density lipoprotein receptor)	1	-0.5	migration z between -2 and 2; enough cells	0.71	6182	inactive
USP27X (ubiquitin specific peptidase 27 X-linked)	1	-1.02	migration z between -2 and 2; enough cells	0.61	4090	inactive
R3HDML (R3H domain containing like)	1	-0.51	migration z between -2 and 2; enough cells	0.76	4528	inactive
RPP38-DT (RPP38 divergent transcript)	1	0.84	migration z between -2 and 2; enough cells	1.1	4206	inactive
SPICE1 (spindle and centriole associated protein 1)	1	-2.87	migration z below -2; enough cells	0.14	5005	active
TTLL4 (tubulin tyrosine ligase like 4)	1	0.48	migration z between -2 and 2; enough cells	1.01	6842	inactive
OAF (out at first homolog)	1	0.2	migration z between -2 and 2; enough cells	0.93	5342	inactive
TMEM169 (transmembrane protein 169)	1	1.52	migration z between -2 and 2; enough cells	1.27	7248	inactive
RIGI (RNA sensor RIG-I)	1	-0.2	migration z between -2 and 2; enough cells	0.76	4374	inactive
SH2D2A (SH2 domain containing 2A)	1	-0.38	migration z between -2 and 2; enough cells	0.79	6359	inactive
SLC16A12	1	-0.1	migration z between -2 and 2; enough cells	0.78	5353	inactive
GNL1 (G protein nucleolar 1)	1	-0.62	migration z between -2 and 2; enough cells	0.72	5562	inactive
TMEM116 (transmembrane protein 116)	1	-0.01	migration z between -2 and 2; enough cells	0.88	6146	inactive

6 neighbouring reagents from above:
target	pool no.	migration robust z-score	migration class with cell-count check	migration relative to mock	nuclei per well, duplicate mean	call
MRPL15 (mitochondrial ribosomal protein L15)	1	-1.44	migration z between -2 and 2; enough cells	0.52	5890	inactive
CALN1 (calneuron 1)	1	-1.5	migration z between -2 and 2; enough cells	0.5	4334	inactive
TIMM8B (translocase of inner mitochondrial membrane 8 homolog B)	1	1.46	migration z between -2 and 2; enough cells	1.27	5293	inactive
MATK (megakaryocyte-associated tyrosine kinase)	1	-2.62	migration z below -2; enough cells	0.3	3396	active
MTRR	1	-0.78	migration z between -2 and 2; enough cells	0.66	4164	inactive
GGTLC2 (gamma-glutamyltransferase light chain 2)	1	-0.91	migration z between -2 and 2; enough cells	0.63	5400	inactive
